Measured values from patent US20240262881A1.
No constants are given. Whether binding was seen depends on the method and setting. Some results given as binding are weak or reduced against the parent protein; the word gives no strength. Tags and fused reporters may be left off the sequences shown.

Legend:
[1] = biological target: T1, recombinant human GDF-8 (human) (UniProt O14793); experiment: MSD plate assay; capture: recombinant GDF-8 on the plate; 8x serial dilutions of the purified protein; detect: anti-Fc
T1 sequence (looked up): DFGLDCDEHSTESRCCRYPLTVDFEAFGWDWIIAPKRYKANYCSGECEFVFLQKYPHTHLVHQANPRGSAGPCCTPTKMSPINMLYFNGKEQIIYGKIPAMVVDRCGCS

[2] = biological target: T1, recombinant human GDF-8 (human); experiment: MSD platform-based assay (figure legend)
[3] = biological target: T1, recombinant human GDF-8 (human); experiment: MSD plate assay: GDF-8 coated, 8x serial dilutions of purified ACVR2B-Fc, detection with anti-human Fc antibody and SULFO-TAG secondary antibody

Measured: binding

B1: recombinant human ACVR2B-Fc fusion protein (Fc fusion, not shown: a dimerising Fc or GST)
chain: SGRGEAETRECIYYNANWELERTNQSGLERCEGEQDKRLHCYASWRNSSGTIELVKKGCWLDDFNCYDRQECVATEENPQVYFCCCEGNFCNERFTHLPEAGGPEVTYEPPPTAPTLLT
binds: all assays above
